These are yes or no findings as the source states them, for the method shown. Some binding calls cover weakened binding; strength is not graded here. Tags and fused reporters may be left off the sequences shown.

Among the data in PMC10400277 are binding values, retold here.

The target of the assay is T1, N-terminus of MSL10 (amino acids 1-164), C-terminally His-tagged (Arabidopsis thaliana), Q9LYG9.
T1 chain: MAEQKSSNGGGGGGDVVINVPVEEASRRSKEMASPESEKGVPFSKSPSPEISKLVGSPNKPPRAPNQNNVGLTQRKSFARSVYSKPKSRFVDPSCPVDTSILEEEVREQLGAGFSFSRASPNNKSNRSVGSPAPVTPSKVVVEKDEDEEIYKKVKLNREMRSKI
Kind of assay: circular dichroism; far-UV CD of His-tagged MSL10^N alone with 10-40% PEG 400 (a separate aliquot for each percentage); 20 °C; 20 mM sodium phosphate pH 7.4; .1-.3 mg/mL protein; self-association inferred from flattening and shift of the spectrum; both purified. The following applies: remark: other sources report otherwise. On the technique in general: Circular dichroism is widely used to follow secondary structure.

B1: N-terminus of MSL10 (amino acids 1-164), C-terminally His-tagged, Q9LYG9 1-164 (domain or fragment)
chain: MAEQKSSNGGGGGGDVVINVPVEEASRRSKEMASPESEKGVPFSKSPSPEISKLVGSPNKPPRAPNQNNVGLTQRKSFARSVYSKPKSRFVDPSCPVDTSILEEEVREQLGAGFSFSRASPNNKSNRSVGSPAPVTPSKVVVEKDEDEEIYKKVKLNREMRSKI
On to B1, for which the binding entry is on record as “binds”.
